The target in this assay is murine EphA5 protein (mouse) (UniProt Q60629). The assay can be described thus: ELISA with decreasing amounts of target protein. A general note: In an ELISA, binding on a coated surface is turned into a signal by an enzyme label.

Protein sequences, listed by entry. Tags and fused reporters are not part of them. Lines headed by an entry give the natural chain unless they say otherwise; changes in a name come on top.
UniProt Q60629: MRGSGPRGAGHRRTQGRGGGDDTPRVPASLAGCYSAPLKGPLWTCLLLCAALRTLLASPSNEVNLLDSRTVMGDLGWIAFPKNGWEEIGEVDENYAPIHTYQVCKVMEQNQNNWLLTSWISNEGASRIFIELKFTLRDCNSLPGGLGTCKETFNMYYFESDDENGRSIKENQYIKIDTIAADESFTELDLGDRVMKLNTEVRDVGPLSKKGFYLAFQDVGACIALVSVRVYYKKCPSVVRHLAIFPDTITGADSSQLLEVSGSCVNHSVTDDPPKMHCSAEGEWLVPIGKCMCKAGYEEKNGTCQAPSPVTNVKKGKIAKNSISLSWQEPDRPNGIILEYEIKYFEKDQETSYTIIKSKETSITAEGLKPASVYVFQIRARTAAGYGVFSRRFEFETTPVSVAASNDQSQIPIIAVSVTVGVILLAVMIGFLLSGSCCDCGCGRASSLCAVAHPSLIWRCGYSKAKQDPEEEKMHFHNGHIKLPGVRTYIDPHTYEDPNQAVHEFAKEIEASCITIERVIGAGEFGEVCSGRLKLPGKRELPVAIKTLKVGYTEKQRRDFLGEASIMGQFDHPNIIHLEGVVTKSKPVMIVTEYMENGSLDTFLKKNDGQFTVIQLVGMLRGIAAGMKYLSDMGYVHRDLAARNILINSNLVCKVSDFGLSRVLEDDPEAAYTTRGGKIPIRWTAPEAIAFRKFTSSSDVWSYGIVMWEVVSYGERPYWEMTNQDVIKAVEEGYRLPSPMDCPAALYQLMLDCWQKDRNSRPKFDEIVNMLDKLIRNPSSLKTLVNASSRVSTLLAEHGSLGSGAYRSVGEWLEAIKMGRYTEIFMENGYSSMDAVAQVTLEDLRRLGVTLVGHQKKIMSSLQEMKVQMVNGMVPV

These are yes or no findings as the source states them, for the method shown.

B1: 11C12 monoclonal anti-EphA5 antibody (antibody, mouse IgG1, V domains shown)
VH: EVTLKESGGGLVQPGGSRKLSCAASGFTFSTFGIHWVRQAPEKGLEWVAYISGASTTIYYADTVKGRFTISRDNPKNTLFLQMTSLRSEDTAMYYCARYGTSFPYGLDYWGQGTSVTVSS
VL: DIVMTQSPGSLAVSLGQRATISCKASQSVDYDGDSYMNWYQQKPGQPPKLLIYGASNLESGIPARFSGSGSGTDFTLNIHPVEEEDAASYYCQQSNEDPFTFGSGTKLEIK
notes: Murine IgG1 monoclonal antibody from a hybridoma; also called monoclonal antibody 11C12; 11C12 antibody
With B1, the binding result is “no binding”.
